In paper PMC9458560:
Results are given in words; binding and its absence hold for the method and conditions named. Binding seen in cells or lysates may run through a third protein. Some binding calls cover weakened binding; strength is not graded here. Tags and fused reporters may be left off the sequences shown.

Amino acid sequences for entries named in this document (tags omitted).
UniProt P05429: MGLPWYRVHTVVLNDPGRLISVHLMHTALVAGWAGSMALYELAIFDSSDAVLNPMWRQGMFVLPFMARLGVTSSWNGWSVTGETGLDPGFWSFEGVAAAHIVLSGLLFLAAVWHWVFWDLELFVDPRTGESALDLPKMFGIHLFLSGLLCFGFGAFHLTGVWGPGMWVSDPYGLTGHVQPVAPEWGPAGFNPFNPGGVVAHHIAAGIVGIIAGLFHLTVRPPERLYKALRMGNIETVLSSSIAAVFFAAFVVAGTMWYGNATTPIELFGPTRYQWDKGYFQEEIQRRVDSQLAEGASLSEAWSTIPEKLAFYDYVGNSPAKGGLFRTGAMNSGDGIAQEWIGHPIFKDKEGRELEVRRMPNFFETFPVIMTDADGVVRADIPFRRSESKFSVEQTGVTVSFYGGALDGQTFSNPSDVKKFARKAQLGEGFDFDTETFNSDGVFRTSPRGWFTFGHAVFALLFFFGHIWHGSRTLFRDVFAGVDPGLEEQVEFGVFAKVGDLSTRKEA

Biological target: T1, N-terminally FLAG-tagged Psb34 (Synechocystis sp. PCC 6803) (UniProt P74067)
T1 sequence: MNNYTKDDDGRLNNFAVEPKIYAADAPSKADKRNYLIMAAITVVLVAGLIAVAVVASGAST
Experiment: co-IP; FLAG-Psb34 pulled down on anti-FLAG M2 affinity gel from β-DDM-solubilised membranes of FLAG-Psb34/∆Psb34 cells exposed to 500 µmol photons m^-2 s^-1 for 2 h; eluate analysed by 2D-CN/SDS-PAGE, SYPRO stain and immunoblot

Row | binding | Substance
1 | binds | CP43 (from UniProt P09193 1-460)
2 | binds | CP47 (from UniProt P05429 1-507)
